From PubChem BioAssay (EPA / NIEHS)
“And” between values parts separate entries of the source, which are not always exact repeats. Equal entries are not always repeated. This list was built around the results that the source calls inconclusive (neither active nor inactive); the mix of calls is not that of the screen. A potency beside an inconclusive call is a rough fit, not a confirmed value. More than one record can exist for a structure, and the calls need not agree. The source made the active and inactive calls. How the source made its calls: active means hit-call score of the fitted dose curve at least 0.9, where 1 is the maximum; inconclusive means response in the unintended direction; inactive means score below 0.9.

Protein sequences, listed by entry. Tags and fused reporters are not part of them. Lines headed by an entry give the natural chain unless they say otherwise; changes in a name come on top.
UniProt P49884, whole entry, looked up: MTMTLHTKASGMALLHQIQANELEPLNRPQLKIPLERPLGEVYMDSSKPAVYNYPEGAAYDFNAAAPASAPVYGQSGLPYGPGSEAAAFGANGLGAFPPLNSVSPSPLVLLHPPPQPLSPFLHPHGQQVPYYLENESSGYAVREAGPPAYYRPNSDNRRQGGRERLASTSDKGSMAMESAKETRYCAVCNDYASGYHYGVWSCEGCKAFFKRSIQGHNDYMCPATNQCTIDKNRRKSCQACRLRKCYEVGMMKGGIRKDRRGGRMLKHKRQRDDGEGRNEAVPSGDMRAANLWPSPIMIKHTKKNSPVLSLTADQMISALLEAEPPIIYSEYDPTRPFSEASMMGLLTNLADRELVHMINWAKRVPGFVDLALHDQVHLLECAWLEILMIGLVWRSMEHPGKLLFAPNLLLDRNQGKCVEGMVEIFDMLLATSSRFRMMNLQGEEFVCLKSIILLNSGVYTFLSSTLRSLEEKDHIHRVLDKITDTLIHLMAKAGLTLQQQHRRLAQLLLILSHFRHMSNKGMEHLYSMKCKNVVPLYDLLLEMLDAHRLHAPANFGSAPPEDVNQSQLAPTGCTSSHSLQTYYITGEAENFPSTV
UniProt O97775: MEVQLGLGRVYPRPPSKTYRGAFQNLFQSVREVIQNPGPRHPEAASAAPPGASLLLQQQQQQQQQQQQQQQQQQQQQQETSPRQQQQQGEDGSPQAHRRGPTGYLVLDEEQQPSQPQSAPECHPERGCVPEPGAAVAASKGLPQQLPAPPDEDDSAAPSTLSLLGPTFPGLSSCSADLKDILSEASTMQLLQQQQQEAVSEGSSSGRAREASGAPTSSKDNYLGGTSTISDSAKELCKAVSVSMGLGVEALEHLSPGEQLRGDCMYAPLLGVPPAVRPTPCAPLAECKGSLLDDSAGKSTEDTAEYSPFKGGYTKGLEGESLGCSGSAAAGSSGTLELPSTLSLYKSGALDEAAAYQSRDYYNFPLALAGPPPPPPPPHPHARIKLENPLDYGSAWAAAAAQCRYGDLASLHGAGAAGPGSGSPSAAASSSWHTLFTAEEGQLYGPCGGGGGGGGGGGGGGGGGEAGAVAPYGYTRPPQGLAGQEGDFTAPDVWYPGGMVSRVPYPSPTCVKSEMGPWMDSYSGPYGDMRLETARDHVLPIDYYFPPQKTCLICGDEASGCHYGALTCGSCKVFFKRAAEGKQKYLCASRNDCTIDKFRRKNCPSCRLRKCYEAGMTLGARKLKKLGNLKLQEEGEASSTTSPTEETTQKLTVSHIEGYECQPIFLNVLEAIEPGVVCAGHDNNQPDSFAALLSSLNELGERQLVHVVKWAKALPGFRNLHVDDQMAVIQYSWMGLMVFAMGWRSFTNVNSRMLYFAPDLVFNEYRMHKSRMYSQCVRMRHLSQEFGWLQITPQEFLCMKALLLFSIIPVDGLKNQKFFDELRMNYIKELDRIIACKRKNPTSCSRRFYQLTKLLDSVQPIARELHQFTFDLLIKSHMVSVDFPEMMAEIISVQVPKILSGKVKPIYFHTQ
UniProt Q96RI1: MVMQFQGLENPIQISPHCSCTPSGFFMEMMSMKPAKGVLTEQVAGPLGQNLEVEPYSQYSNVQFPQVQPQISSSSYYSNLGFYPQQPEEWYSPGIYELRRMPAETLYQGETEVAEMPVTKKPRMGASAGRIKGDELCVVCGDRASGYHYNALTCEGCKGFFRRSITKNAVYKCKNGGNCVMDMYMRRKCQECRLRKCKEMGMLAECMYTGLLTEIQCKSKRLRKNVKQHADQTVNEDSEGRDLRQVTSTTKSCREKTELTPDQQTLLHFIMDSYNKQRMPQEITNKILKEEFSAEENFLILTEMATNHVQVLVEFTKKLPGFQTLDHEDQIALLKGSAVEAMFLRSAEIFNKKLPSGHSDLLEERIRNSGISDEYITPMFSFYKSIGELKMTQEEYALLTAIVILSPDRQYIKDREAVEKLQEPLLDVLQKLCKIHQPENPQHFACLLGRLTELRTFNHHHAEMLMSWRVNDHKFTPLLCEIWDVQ
UniProt P03372, whole entry, looked up: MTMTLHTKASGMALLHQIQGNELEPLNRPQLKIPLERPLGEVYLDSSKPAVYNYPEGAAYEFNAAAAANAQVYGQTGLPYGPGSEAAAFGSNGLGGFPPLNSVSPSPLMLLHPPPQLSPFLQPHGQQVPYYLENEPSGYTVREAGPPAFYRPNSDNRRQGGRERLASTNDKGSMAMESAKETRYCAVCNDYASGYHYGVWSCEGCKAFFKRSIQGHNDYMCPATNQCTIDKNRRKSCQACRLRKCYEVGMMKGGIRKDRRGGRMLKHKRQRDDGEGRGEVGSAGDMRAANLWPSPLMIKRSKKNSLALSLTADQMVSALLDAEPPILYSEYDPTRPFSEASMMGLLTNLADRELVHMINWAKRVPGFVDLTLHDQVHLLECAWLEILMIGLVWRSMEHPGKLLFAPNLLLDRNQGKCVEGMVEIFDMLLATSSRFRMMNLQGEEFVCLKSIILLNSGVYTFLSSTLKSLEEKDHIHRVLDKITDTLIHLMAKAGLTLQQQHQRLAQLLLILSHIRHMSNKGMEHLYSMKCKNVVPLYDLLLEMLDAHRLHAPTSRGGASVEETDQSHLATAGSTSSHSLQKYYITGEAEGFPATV

Molecular target: bovine Estrogen Receptor (ER), ESR1 (gene 407238) (UniProt P49884)
Test: NVS_NR_bER: NovaScreen (NVS) Nuclear Receptor Binding Assay for bovine Estrogen Receptor (ER) (AID 2283345);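 further: actives lower the bound radioligand count which means they displace the ER ligand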
In short: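 Cell-free radioligand binding with receptor from bovine uterine membranes, read by scintillation counting 18 h after dosing. Loss of specific binding was scored against DMSO; primary screen at 25 uM in duplicate, actives then run as concentration series.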

Row | Structure (SMILES) | AC50 | outcome
1 | CC(C)CCCCCCOC(=O)C1CCCCC1C(=O)OCCCCCCC(C)C (stereo not drawn) | inconclusive: 25 µM | 
2 | CCCCCCCCCC=O |  | inactive
3 | C=C[C@](C)(O)CC[C@@H]1[C@@]2(C)CCCC(C)(C)[C@@H]2CC[C@@]1(C)O | inconclusive: 12.2 µM | 
4 | C#C[C@]1(O)CC[C@H]2[C@@H]3CCc4cc(OC)ccc4[C@H]3CC[C@@]21C | active: 0.0305 µM | 
5 | CC(=O)N1CCN(c2ccc(OC[C@H]3CO[C@](Cn4ccnc4)(c4ccc(Cl)cc4Cl)O3)cc2)CC1 | inconclusive: 25 µM | 
6 | CCCCCc1ccc(N)cc1 | inconclusive: 50 nM and inconclusive: 25 µM and inconclusive: 6.61 µM | 
7 | OCC(CO)n1cnc(-c2ccc(F)cc2)c1-c1ccnc(Oc2ccccc2)n1 | inconclusive: 40.2 µM | 

Molecular target: chimpanzee Androgen Receptor (AR), AR (gene 747460) (UniProt O97775)
Test: NVS_NR_cAR: NovaScreen (NVS) Nuclear Receptor Binding Assay for chimpanzee Androgen Receptor (AR) (AID 2283346);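 further: radioligand displacement from AR measured by scintillation counting in a cell-free assay; a loss of bound radioligand signal versus DMSO counts as binding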
In short: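 Cell-free competition binding with insect-cell (Sf9/Sf21) extracted chimpanzee AR; scintillation signal from lysate at 72 h. Screened in duplicate at 25 uM, then concentration-response for actives; fitting relative to DMSO.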

Row | Structure (SMILES) | AC50
8 | CC1=CCC(=C(C)C)CC1 | inconclusive: 0.023 µM
9 | CC1=NN(c2ccc(S(=O)(=O)O)cc2)C(=O)C1N=Nc1ccccc1 (stereo not drawn) | inconclusive: 45.6 µM
10 | Cc1cc(C(=C2C=CC(=Nc3ccc(S(=O)(=O)O)cc3)C=C2)c2ccc(Nc3ccc(S(=O)(=O)O)cc3)cc2)cc(S(=O)(=O)O)c1N | active: 15.5 µM
11 | CCOC(=O)c1ccccc1 | inconclusive: 42.4 µM

Molecular target: Bile acid receptor (Homo sapiens) (UniProt Q96RI1)
Test: NVS_NR_hFXR_Agonist: NovaScreen (NVS) Nuclear Receptor Binding Assay for human Farnesoid X Receptor Agonism (FXR) (AID 2283347)
In short: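 Cell-free TR-FRET binding assay with extracted human FXR protein, agonist format, read 1 h after dosing. Primary screen at 25 uM single concentration in duplicate, actives retested in concentration series; gain of signal versus DMSO.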

Row | Structure (SMILES) | AC50 | outcome
12 | CN(C)c1ccc2nc3ccc(=[N+](C)C)cc-3sc2c1 | inconclusive: 33.6 µM | 
13 | c1ccc2ccccc2c1 | inconclusive: 46 µM | 
14 | CCCCOC(=O)c1ccc(O)cc1 |  | inactive
15 | O=c1c(-c2ccc(O)cc2)coc2cc(O)ccc12 | inconclusive: 25 µM | 
16 | CC1=NN(c2cc(S(=O)(=O)O)ccc2Cl)C(=O)C1N=Nc1ccccc1 (stereo not drawn) | inconclusive: 25 µM | 
17 | CCN(CCC#N)c1ccc(N=Nc2c(Cl)cc([N+](=O)[O-])cc2Cl)cc1 |  | inactive
18 | Cc1ccc(N/N=c2\c(=O)cc/c(=N/Nc3ccc(S(=O)(=O)O)cc3)c2=O)c(C)c1 | inconclusive: 17.1 µM | 

Full records, quoted from the list.
`c1ccc2ccccc2c1` is listed as AC50: inconclusive: 46 µM
`O=c1c(-c2ccc(O)cc2)coc2cc(O)ccc12` is listed as AC50: inconclusive: 25 µM

Molecular target: Estrogen receptor (Homo sapiens) (UniProt P03372)
Test: NVS_NR_hER: NovaScreen (NVS) Nuclear Receptor Binding Assay for human Estrogen Receptor (ER) (AID 2283348)
In short: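 Scintillation signal from bound radioligand was measured 18 hours after chemical addition to cell-free MCF7 protein extracts, with DMSO as baseline. Activity was scored as signal loss; compounds ran first at 25 uM in duplicate.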

Row | Structure (SMILES) | AC50 | outcome
19 | CC1COc2ccccc2N1C(=O)C(Cl)Cl (stereo not drawn) | active: 0.0627 µM | 
20 | CCC(C)(C)C1CCC(O)CC1 (stereo not drawn) | active: 3.1 µM and active: 2.51 µM | 
21 | C=CC(C)(CCC=C(C)C)OC(C)=O (stereo not drawn) | inconclusive: 25 µM | 
22 | CCCC(=O)c1cc(O)c(O)cc1O | active: 7.55 µM | 
23 | CCCCCCCCn1sc(Cl)c(Cl)c1=O | active: 0.549 µM | 
24 | Nc1cccc(S(=O)(=O)c2cccc(N)c2)c1 | inconclusive: 6.62 µM | 
25 | c1ccc2c(c1)ccc1cc3c(ccc4ccccc43)cc12 | inconclusive: 0.000571 µM | 
26 | OC1CCC(C2CCCCC2)CC1 (stereo not drawn) | inconclusive: 0.744 µM | 
27 | CCCCCCCC[N+](C)(CCCCCCCC)CCCCCCCC | inconclusive: 0.00229 µM | 
28 | CCOC(N)=O | inconclusive: 0.153 µM | 
29 | O=C(c1ccccc1)C1CCCCC1 | inconclusive: 25 µM | 
30 | c1ccc2c(c1)ccc1ncccc12 | inconclusive: 6.15 µM | 
31 | CCc1cc(Cc2cc(CC)c(N)c(CC)c2)cc(CC)c1N | active: 0.0643 µM | 
32 | CCCCCCC(C)O (stereo not drawn) | inconclusive: 6.12 µM and active: 43.2 µM | 
33 | C/C=C\C/C=C/CCCCCCCCOC(C)=O |  | inactive
34 | COc1ccc(S(=O)(=O)N2C(=O)[C@@](c3ccccc3OC)(N3C[C@H](O)C[C@H]3C(=O)N(C)C)c3cc(Cl)ccc32)c(OC)c1 |  | inactive
35 | CC(C)(C)c1cc(CCC(=O)OCC(COC(=O)CCc2cc(C(C)(C)C)c(O)c(C(C)(C)C)c2)(COC(=O)CCc2cc(C(C)(C)C)c(O)c(C(C)(C)C)c2)COC(=O)CCc2cc(C(C)(C)C)c(O)c(C(C)(C)C)c2)cc(C(C)(C)C)c1O | inconclusive: 11.1 µM | 
36 | CC(C)CCCCCCOC(=O)C1CCCCC1C(=O)OCCCCCCC(C)C (stereo not drawn) | inconclusive: 25 µM | 
37 | CCCCCCCCCC=O | inconclusive: 25 µM | 
38 | C=C[C@](C)(O)CC[C@@H]1[C@@]2(C)CCCC(C)(C)[C@@H]2CC[C@@]1(C)O | inconclusive: 3.39 µM | 
39 | C#C[C@]1(O)CC[C@H]2[C@@H]3CCc4cc(OC)ccc4[C@H]3CC[C@@]21C | active: 0.00229 µM | inactive
40 | CC(=O)N1CCN(c2ccc(OC[C@H]3CO[C@](Cn4ccnc4)(c4ccc(Cl)cc4Cl)O3)cc2)CC1 | inconclusive: 25 µM | 
41 | CCCCCc1ccc(N)cc1 | inconclusive: 0.433 µM | 
42 | OCC(CO)n1cnc(-c2ccc(F)cc2)c1-c1ccnc(Oc2ccccc2)n1 | inconclusive: 6.08 µM | 
